From the supplement of paper PMC10849652
Some of the results follow. Residues, ends and D or L forms follow the SMILES beside them. *: point of attachment. Cbz = O=C(OCc1ccccc1)*

Amino acid sequences for entries named in this document (tags omitted). A change or cut given only in a name is not applied to a line headed by its entry.
UniProt Q9P2H3, whole entry, looked up: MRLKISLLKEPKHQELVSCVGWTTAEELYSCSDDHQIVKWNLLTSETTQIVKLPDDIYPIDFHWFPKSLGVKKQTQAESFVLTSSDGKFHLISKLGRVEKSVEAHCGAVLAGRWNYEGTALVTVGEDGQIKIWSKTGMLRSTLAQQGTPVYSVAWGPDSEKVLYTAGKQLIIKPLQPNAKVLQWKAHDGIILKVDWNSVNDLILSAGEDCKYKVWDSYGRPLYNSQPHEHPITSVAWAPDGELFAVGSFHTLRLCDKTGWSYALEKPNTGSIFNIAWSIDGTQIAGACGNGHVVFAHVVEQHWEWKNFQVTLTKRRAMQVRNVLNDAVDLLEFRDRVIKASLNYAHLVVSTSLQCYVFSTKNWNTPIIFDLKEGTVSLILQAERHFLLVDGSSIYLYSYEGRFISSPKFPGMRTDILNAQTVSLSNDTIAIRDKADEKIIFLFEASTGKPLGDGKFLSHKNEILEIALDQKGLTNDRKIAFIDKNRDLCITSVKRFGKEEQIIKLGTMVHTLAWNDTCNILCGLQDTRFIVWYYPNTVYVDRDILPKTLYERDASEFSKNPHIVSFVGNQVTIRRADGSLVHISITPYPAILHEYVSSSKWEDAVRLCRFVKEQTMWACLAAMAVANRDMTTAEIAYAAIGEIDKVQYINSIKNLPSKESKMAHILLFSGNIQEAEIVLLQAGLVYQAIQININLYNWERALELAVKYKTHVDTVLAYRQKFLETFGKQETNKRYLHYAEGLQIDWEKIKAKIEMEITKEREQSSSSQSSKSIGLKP
UniProt P50213: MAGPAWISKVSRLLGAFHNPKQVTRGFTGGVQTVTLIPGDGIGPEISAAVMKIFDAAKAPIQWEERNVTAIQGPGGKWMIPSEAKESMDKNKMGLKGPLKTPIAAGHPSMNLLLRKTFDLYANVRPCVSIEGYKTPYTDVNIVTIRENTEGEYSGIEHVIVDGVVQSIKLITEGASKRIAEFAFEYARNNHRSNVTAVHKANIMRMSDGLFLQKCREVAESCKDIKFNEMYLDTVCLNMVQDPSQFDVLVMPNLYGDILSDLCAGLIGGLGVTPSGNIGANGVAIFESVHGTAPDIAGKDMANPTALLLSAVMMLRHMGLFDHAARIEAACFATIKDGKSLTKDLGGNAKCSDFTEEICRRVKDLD
UniProt Q96T52: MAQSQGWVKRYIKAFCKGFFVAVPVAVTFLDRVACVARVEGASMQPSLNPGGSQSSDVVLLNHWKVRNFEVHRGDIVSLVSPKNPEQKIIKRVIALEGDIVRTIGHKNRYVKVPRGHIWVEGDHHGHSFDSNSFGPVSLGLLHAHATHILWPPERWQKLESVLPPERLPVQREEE
UniProt O75874, whole entry, looked up: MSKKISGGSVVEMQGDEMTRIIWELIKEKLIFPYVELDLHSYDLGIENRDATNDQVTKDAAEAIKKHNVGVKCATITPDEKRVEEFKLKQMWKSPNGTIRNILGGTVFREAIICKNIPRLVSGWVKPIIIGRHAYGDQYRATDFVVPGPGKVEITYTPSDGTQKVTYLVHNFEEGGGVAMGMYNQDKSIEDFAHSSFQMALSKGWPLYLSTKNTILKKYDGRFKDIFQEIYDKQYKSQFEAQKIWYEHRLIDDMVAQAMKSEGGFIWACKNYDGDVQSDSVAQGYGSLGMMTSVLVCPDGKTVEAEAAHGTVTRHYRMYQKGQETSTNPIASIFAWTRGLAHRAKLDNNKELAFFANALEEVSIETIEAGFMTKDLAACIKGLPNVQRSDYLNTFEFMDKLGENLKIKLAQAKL
UniProt Q16891: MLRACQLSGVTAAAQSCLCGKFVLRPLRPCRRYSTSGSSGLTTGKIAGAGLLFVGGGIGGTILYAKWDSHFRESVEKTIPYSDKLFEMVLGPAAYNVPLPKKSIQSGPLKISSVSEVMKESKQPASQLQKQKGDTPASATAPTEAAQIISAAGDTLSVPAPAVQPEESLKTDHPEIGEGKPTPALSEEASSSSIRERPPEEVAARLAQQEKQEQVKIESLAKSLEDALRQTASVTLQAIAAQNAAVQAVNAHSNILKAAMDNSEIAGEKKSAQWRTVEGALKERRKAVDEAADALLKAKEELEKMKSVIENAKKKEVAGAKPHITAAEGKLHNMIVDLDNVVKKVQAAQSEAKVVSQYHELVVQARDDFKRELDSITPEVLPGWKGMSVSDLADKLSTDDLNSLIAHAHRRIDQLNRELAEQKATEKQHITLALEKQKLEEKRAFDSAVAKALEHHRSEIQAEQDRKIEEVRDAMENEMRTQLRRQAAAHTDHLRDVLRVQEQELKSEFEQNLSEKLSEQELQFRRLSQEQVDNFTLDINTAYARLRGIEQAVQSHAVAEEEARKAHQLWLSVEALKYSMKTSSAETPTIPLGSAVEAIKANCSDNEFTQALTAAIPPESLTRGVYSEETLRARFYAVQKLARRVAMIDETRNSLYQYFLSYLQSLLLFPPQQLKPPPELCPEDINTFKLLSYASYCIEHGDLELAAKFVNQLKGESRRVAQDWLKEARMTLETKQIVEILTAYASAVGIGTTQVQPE
UniProt Q6UWB1, whole entry, looked up: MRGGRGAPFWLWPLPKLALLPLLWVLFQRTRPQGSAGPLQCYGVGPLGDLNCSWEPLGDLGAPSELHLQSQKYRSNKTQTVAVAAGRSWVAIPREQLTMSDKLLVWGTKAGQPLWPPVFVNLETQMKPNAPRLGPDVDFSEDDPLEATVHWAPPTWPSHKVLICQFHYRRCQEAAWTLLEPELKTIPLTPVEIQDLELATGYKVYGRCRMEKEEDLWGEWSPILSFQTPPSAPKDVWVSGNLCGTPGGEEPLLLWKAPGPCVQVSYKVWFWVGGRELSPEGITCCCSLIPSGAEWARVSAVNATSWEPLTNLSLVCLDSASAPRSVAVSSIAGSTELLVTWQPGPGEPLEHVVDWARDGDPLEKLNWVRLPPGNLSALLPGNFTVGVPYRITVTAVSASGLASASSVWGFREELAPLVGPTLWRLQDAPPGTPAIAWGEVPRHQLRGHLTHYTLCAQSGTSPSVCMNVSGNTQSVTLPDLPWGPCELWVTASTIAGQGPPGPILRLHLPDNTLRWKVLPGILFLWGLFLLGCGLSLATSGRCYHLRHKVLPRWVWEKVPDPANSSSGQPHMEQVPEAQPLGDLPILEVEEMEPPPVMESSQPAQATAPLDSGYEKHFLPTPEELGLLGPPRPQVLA
UniProt O43736: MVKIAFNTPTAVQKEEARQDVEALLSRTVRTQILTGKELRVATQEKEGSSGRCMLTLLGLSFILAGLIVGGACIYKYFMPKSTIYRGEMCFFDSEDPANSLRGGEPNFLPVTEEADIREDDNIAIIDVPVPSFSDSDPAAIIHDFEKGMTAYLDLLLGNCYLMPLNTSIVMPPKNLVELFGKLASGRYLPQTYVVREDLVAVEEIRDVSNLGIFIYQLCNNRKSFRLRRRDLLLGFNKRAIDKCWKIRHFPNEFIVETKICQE

Columns and labels:
Test in all cases: log2 fold change, soluble protein after heating vs DMSO (PISA); higher = thermal stabilisation; K562 cells, 10 uM, 30 min; active = over 0.2 and 3.5 SD of the protein, either way, in both replicates (recomputed)
erlotinib = compound: C#Cc1cccc(Nc2ncnc3cc(OCCOC)c(OCCOC)cc23)c1 [erlotinib]
Summary of the method: (§1)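 For each measurement, 10 μM compound was applied for 30 min to K562 cells at 2×10^6 cells/mL. Aliquots were heated for 3 min across 48°C-58°C, pooled, and extracted in PBS with 0.5% NP-40 at 4°C; the supernatant after 21,000xg for 90 min was soluble protein. This was quantified by TMTpro 16plex LC-MS/MS with channel sums equalised, and thermal stability was reported relative to control samples from duplicates, on a log2 fold-change scale.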

[1] = compound: C/C(=N\NC(=O)C1=CC(=CC=C1)S(=O)(=O)N2CCOCC2)/C3=C(C=CC(=C3)Cl)O
Summary of the method: as §1

[2] = compound: C1=CC(=C(C=C1Cl)C2=NC3=NC=CN=C3C(=N2)NC4=CC=NC=C4)F
Summary of the method: as §1

[3] = compound: C1=CC(=CC=C1C2=NC3=C(N2)C=C(C=C3)C(=O)N)OC4=CC=C(C=C4)Cl
Summary of the method: as §1

[4] = compound: C1=CC2=C(C=CC(=C2)/C=C\3/C(=O)NC(=NCC4=CC=CS4)S3)N=C1
Summary of the method: as §1

[5] = compound: C1=CC2=NC=CN=C2C=C1/C=C/3\C(=O)NC(=O)S3
Summary of the method: as §1

[6] = compound: C1=CC=C(C=C1)C2=NC(=C(N2)C3=CC=NC=C3)C4=CC(=C(C=C4)Cl)O
Summary of the method: as §1

[7] = compound: C1=CC=C2C(=C1)C3=NNC4=CC=CC(=C43)C2=O
Summary of the method: as §1

[8] = compound: C1CCN(C1)C(=O)NC2=CC=CC(=C2)NC3=NC=C(C(=N3)NCCC4=CN=CN4)Br
Summary of the method: as §1

[9] = compound: C1CN(CCC1(CC2=CC=C(C=C2)Cl)N)C3=NC=NC4=C3C=CN4
Summary of the method: as §1

IRAK-1-4 Inhibitor I = compound: C1COCCN1CCN2C3=CC=CC=C3N=C2NC(=O)C4=CC(=CC=C4)[N+](=O)[O-] [IRAK-1-4 Inhibitor I]
Summary of the method: as §1

ibrutinib = compound: C=CC(=O)N1CCC[C@@H](n2nc(-c3ccc(Oc4ccccc4)cc3)c3c(N)ncnc32)C1 [ibrutinib]
Summary of the method: as §1

[10] = compound: CC(=O)c1cnc2ccc(-c3cc(Cl)c(O)c(Cl)c3)nc2c1N[C@H]1CC[C@H](CN(C)C)CC1
Summary of the method: as §1

ralimetinib = compound: CC(C)(C)Cn1c(N)nc2ccc(-c3[nH]c(C(C)(C)C)nc3-c3ccc(F)cc3)nc21 [ralimetinib]
Summary of the method: as §1

[11] = compound: CC(C)(O)CC(=O)NCCn1ccc2ncnc(Nc3ccc(Oc4cccc(C(F)(F)F)c4)c(Cl)c3)c21
Summary of the method: as §1

[12] = compound: CC(C)C1=C2N=C(C=C(N2N=C1)NCC3=CC=CC=C3)NCCCCCCN
Summary of the method: as §1

[13] = compound: CC(C)C[C@@H](C=O)NC(=O)[C@H](CC(C)C)NC(=O)[C@H](CC(C)C)NC(=O)OCc1ccccc1
Summary of the method: as §1

pinometostat = compound: CC(C)N(C[C@H]1O[C@@H](n2cnc3c(N)ncnc32)[C@H](O)[C@@H]1O)[C@H]1C[C@@H](CCc2nc3cc(C(C)(C)C)ccc3[nH]2)C1 [pinometostat]
Summary of the method: as §1

[14] = compound: CC1=C(C2=C(C=C1)C(=O)C3=CC=CC=C3N2CCCN)C
Summary of the method: as §1

[15] = compound: CC1=C(C(CC(=O)N1)C2=CC=C(C=C2)C(F)(F)F)C(=O)NC3=C(C=C4C(=C3)C=NN4)F
Summary of the method: as §1

Measured: log2 fold change

IFT80 isoform 3 (UniProt Q9P2H3)
inactive: erlotinib 0.04 | [1] 0.071 | [2] -0.04 | [3] 0.013 | [4] 0.042 | [5] -0.011 | [6] -0.066 | [7] -0.229 | [8] -0.013 | [9] 0.042 | IRAK-1-4 Inhibitor I 0.03 | ibrutinib 0.099 | [10] -0.073 | ralimetinib -0.02 | [11] -0.118 | [12] -0.113 | [13] 0.072 | pinometostat 0.049 | [14] 0.073

IDH3A (UniProt P50213)
inactive: erlotinib 0.021 | [1] 0.034 | [2] 0.1 | [3] 0.023 | [4] 0.021 | [5] 0.017 | [6] -0.03 | [7] 0.024 | [8] -0.009 | [9] 0.028 | IRAK-1-4 Inhibitor I 0.033 | ibrutinib 0.021 | [10] -0.008 | ralimetinib -0.085 | [11] -0.044 | [12] 0.034 | [13] 0 | pinometostat -0.029 | [14] 0.015

INPP4A (UniProt Q96PE3)
inactive: erlotinib -0.007 | [1] 0.046 | [2] 0.051 | [3] 0.007 | [4] 0.019 | [5] 0.003 | [6] 0.114 | [7] -0.057 | [8] -0.057 | [9] 0.027 | IRAK-1-4 Inhibitor I 0.034 | ibrutinib 0.048 | [10] -0.008 | ralimetinib 0.077 | [11] -0.026 | [12] 0.065 | [13] -0.025 | pinometostat -0.003 | [15] -0.092 | [14] 0.017

IMMP2L (UniProt Q96T52)
inactive: erlotinib 0.013 | [1] -0.046 | [2] 0.031 | [3] -0.029 | [4] 0.023 | [5] 0.129 | [6] -0.01 | [7] 0.028 | [8] -0.026 | [9] 0.055 | IRAK-1-4 Inhibitor I 0.002 | ibrutinib 0.002 | [10] 0.033 | ralimetinib 0.02 | [11] -0.029 | [12] 0.013 | [13] -0.038 | pinometostat -0.025 | [15] -0.088 | [14] 0.001

IDH1 (UniProt O75874)
inactive: erlotinib 0.021 | [1] -0.001 | [2] 0.075 | [3] 0 | [4] -0.005 | [5] -0.026 | [6] -0.02 | [7] -0.019 | [8] 0.026 | [9] 0.064 | IRAK-1-4 Inhibitor I 0.033 | ibrutinib 0.042 | [10] 0.015 | ralimetinib -0.037 | [11] -0.048 | [12] 0.024 | [13] -0.037 | pinometostat -0.055 | [15] 0.005 | [14] 0.005

IMMT isoform 4 (UniProt Q16891)
inactive: erlotinib -0.027 | [1] 0.026 | [2] 0.057 | [3] -0.006 | [4] -0.021 | [5] 0.011 | [6] 0.012 | [7] 0.001 | [8] 0.012 | [9] -0.013 | IRAK-1-4 Inhibitor I 0.037 | ibrutinib -0.005 | [10] -0.015 | ralimetinib -0.044 | [11] -0.035 | [12] -0.179 | [13] -0.013 | pinometostat -0.013 | [14] 0.01

IL27RA (UniProt Q6UWB1)
inactive: erlotinib -0.082 | [1] 0.04 | [2] -0.147 | [3] 0.007 | [4] 0.021 | [5] 0.048 | [6] 0.064 | [7] 0.068 | [8] -0.011 | [9] 0.075 | IRAK-1-4 Inhibitor I -0.189 | ibrutinib 0.077 | [10] 0.011 | ralimetinib 0.058 | [11] 0.005 | [12] 0.139 | [13] -0.167 | pinometostat 0.043 | [14] 0.012

2 neighbouring records from above, for reference:
IMMT isoform 4 (UniProt Q16891)
inactive: erlotinib -0.027 | [1] 0.026 | [2] 0.057 | [3] -0.006 | [4] -0.021 | [5] 0.011 | [6] 0.012 | [7] 0.001 | [8] 0.012 | [9] -0.013 | IRAK-1-4 Inhibitor I 0.037 | ibrutinib -0.005 | [10] -0.015 | ralimetinib -0.044 | [11] -0.035 | [12] -0.179 | [13] -0.013 | pinometostat -0.013 | [14] 0.01

IL27RA (UniProt Q6UWB1)
inactive: erlotinib -0.082 | [1] 0.04 | [2] -0.147 | [3] 0.007 | [4] 0.021 | [5] 0.048 | [6] 0.064 | [7] 0.068 | [8] -0.011 | [9] 0.075 | IRAK-1-4 Inhibitor I -0.189 | ibrutinib 0.077 | [10] 0.011 | ralimetinib 0.058 | [11] 0.005 | [12] 0.139 | [13] -0.167 | pinometostat 0.043 | [14] 0.012

(next part)

ITM2A (UniProt O43736)
inactive: erlotinib 0.017 | [1] -0.039 | [2] 0.094 | [3] 0.047 | [4] 0.03 | [5] 0.018 | [6] 0.002 | [7] -0.052 | [8] -0.027 | [9] -0.101 | IRAK-1-4 Inhibitor I 0.012 | ibrutinib 0.012 | [10] 0.019 | ralimetinib 0.015 | [11] 0 | [12] 0.163 | [13] 0.157 | pinometostat 0.036 | [15] 0.024 | [14] -0.209
